From article PMC12651396
Results are given in words; binding and its absence hold for the method and conditions named. In cells and extracts the contact can be indirect. Some entries that bind do so weakly or less than the wild type. Tags and fused reporters may be left off the sequences shown.

Amino acid sequences for entries named in this document (tags omitted).
UniProt P67809: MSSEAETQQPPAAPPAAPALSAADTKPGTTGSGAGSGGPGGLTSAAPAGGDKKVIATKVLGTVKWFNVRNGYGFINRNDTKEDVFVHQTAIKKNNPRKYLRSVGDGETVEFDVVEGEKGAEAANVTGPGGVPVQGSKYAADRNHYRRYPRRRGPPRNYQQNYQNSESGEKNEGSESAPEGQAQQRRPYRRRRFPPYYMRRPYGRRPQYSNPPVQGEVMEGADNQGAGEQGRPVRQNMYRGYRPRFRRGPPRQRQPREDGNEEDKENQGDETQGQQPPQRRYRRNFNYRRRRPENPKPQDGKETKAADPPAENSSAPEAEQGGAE

Target: T1, FLAG-tagged fibroblast growth factor 12 (FGF12) (human) (UniProt P61328)
T1 sequence: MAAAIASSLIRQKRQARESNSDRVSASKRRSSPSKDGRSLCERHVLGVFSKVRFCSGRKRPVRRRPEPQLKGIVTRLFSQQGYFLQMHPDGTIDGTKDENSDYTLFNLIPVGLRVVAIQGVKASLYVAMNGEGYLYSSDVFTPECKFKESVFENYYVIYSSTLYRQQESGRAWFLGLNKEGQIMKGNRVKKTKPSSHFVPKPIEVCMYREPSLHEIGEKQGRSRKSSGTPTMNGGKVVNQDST
Assay: co-IP; lysates of LNCaP FGF12 and control cells; anti-Flag antibody or normal IgG, Protein A/G agarose beads; Western blotting with anti-YB1 antibody; repeated after silencing of YB1 by siRNA

binding: binds
Substance: Y-box binding protein 1 (YB1) (from UniProt P67809 1-324)
